Record: PubChem BioAssay AID1508597 (Cure First, 2020)
Shown is a random part of the about 2,100 reagents, under one of the conditions tested. 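Calls flag viability under 80% in either arm, not effects specific to rucaparib; the reference for percent is not stated.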 Some reagents were tested in more than one well and are listed for each. Not stated in the record: the 100% reference.

Test: 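Knock-downs altering ovarian cancer cell survival with or without PARP inhibitor rucaparib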 (primary screen)
Cell system: human ovarian carcinoma lines grown from tumours: OCI-P5x (papillary serous) and OCI-C5x (clear cell)
Reagent: siRNA pool against human genes, 1.25 pmol siRNA per well
Timing: 72 h or 96 h, depending on the cell culture
Treatment: rucaparib 20 µM (about IC30) or vehicle, present until read-out
Rucaparib or vehicle: Vehicle
Cell line: OCI-C5x (clear cell)
Measured: 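Luminescent ATP-based viability assay read 72 or 96 h after transfection, depending on culture, given as normalised percent viability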
Scale: viability, normalised: higher = more viable cells remaining
Active means: 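a well counts as a hit if its normalised viability is under 80 percent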
Calls: active = viability under 80%; inactive = viability 80% or more

| gene | technical replicate | viability, normalised (%) | activity call |
| --- | --- | --- | --- |
| FKBP1A (FKBP prolyl isomerase 1A) | 1 | 52.7 | active |
| FKBP1A (FKBP prolyl isomerase 1A) | 2 | 66.2 | active |
| FKBP1A (FKBP prolyl isomerase 1A) | 3 | 58.8 | active |
| YJU2B (YJU2 splicing factor homolog B) | 1 | 69.8 | active |
| YJU2B (YJU2 splicing factor homolog B) | 2 | 59.3 | active |
| YJU2B (YJU2 splicing factor homolog B) | 3 | 59.4 | active |
| RIPK2 (receptor interacting serine/threonine kinase 2) | 1 | 39.7 | active |
| RIPK2 (receptor interacting serine/threonine kinase 2) | 2 | 57.2 | active |
| RIPK2 (receptor interacting serine/threonine kinase 2) | 3 | 57.5 | active |
| TGFBR2 (transforming growth factor beta receptor 2) | 1 | 51.2 | active |
| TGFBR2 (transforming growth factor beta receptor 2) | 2 | 45.9 | active |
| TGFBR2 (transforming growth factor beta receptor 2) | 3 | 51.6 | active |
| ROR1 (ROR family WNT receptor 1) | 1 | 62.5 | active |
| ROR1 (ROR family WNT receptor 1) | 2 | 52.6 | active |
| ROR1 (ROR family WNT receptor 1) | 3 | 54.2 | active |
| CERK (ceramide kinase) | 1 | 42.6 | active |
| CERK (ceramide kinase) | 2 | 56 | active |
| CERK (ceramide kinase) | 3 | 52.2 | active |
| TRRAP (transformation/transcription domain associated protein) | 1 | 22.5 | active |
| TRRAP (transformation/transcription domain associated protein) | 1 | 75.7 | active |
| TRRAP (transformation/transcription domain associated protein) | 1 | 55 | active |
| TRRAP (transformation/transcription domain associated protein) | 2 | 30.3 | active |
| TRRAP (transformation/transcription domain associated protein) | 2 | 55.6 | active |
| TRRAP (transformation/transcription domain associated protein) | 2 | 51.5 | active |
| TRRAP (transformation/transcription domain associated protein) | 3 | 41.3 | active |
| TRRAP (transformation/transcription domain associated protein) | 3 | 40.6 | active |
| TRRAP (transformation/transcription domain associated protein) | 3 | 68.6 | active |
| FOXC1 (forkhead box C1) | 1 | 45.3 | active |
| FOXC1 (forkhead box C1) | 2 | 42.3 | active |
| FOXC1 (forkhead box C1) | 3 | 48.9 | active |
| KAT2B (lysine acetyltransferase 2B) | 1 | 59.5 | active |
| KAT2B (lysine acetyltransferase 2B) | 2 | 63 | active |
| KAT2B (lysine acetyltransferase 2B) | 3 | 56.7 | active |
| ZC3HAV1 (zinc finger CCCH-type containing, antiviral 1) | 1 | 56.6 | active |
| ZC3HAV1 (zinc finger CCCH-type containing, antiviral 1) | 2 | 70.6 | active |
| ZC3HAV1 (zinc finger CCCH-type containing, antiviral 1) | 3 | 70.4 | active |
| TNRC6A (trinucleotide repeat containing adaptor 6A) | 1 | 69.5 | active |
| TNRC6A (trinucleotide repeat containing adaptor 6A) | 2 | 65.3 | active |
| TNRC6A (trinucleotide repeat containing adaptor 6A) | 3 | 67.4 | active |

A portion taken from the entries so far, as a working copy:
| gene | technical replicate | viability, normalised (%) | activity call |
| --- | --- | --- | --- |
| RIPK2 (receptor interacting serine/threonine kinase 2) | 2 | 57.2 | active |
| RIPK2 (receptor interacting serine/threonine kinase 2) | 3 | 57.5 | active |
| TGFBR2 (transforming growth factor beta receptor 2) | 1 | 51.2 | active |

Additional records follow:
| gene | technical replicate | viability, normalised (%) | activity call |
| --- | --- | --- | --- |
| RAPGEF4 (Rap guanine nucleotide exchange factor 4) | 1 | 44.2 | active |
| RAPGEF4 (Rap guanine nucleotide exchange factor 4) | 2 | 50.7 | active |
| RAPGEF4 (Rap guanine nucleotide exchange factor 4) | 3 | 50.5 | active |
| MORC1 (MORC family CW-type zinc finger 1) | 1 | 64.5 | active |
| MORC1 (MORC family CW-type zinc finger 1) | 2 | 66.3 | active |
| MORC1 (MORC family CW-type zinc finger 1) | 3 | 74.4 | active |
| CDK11B (cyclin dependent kinase 11B) | 1 | 46.5 | active |
| CDK11B (cyclin dependent kinase 11B) | 2 | 45.5 | active |
| CDK11B (cyclin dependent kinase 11B) | 3 | 39.9 | active |
| RLF (RLF zinc finger) | 1 | 44.6 | active |
| RLF (RLF zinc finger) | 2 | 38.1 | active |
| RLF (RLF zinc finger) | 3 | 40 | active |
| MAP3K4 (mitogen-activated protein kinase kinase kinase 4) | 1 | 116 | inactive |
| MAP3K4 (mitogen-activated protein kinase kinase kinase 4) | 2 | 68.5 | active |
| MAP3K4 (mitogen-activated protein kinase kinase kinase 4) | 3 | 42.7 | active |
| JAK3 (Janus kinase 3) | 1 | 84.1 | inactive |
| JAK3 (Janus kinase 3) | 2 | 60.7 | active |
| JAK3 (Janus kinase 3) | 3 | 54.8 | active |
| CAMK4 (calcium/calmodulin dependent protein kinase IV) | 1 | 82.1 | inactive |
| CAMK4 (calcium/calmodulin dependent protein kinase IV) | 2 | 58.5 | active |
| CAMK4 (calcium/calmodulin dependent protein kinase IV) | 3 | 76.2 | active |
| METTL8 (methyltransferase 8, tRNA N3-cytidine) | 1 | 38 | active |
| METTL8 (methyltransferase 8, tRNA N3-cytidine) | 2 | 39.1 | active |
| METTL8 (methyltransferase 8, tRNA N3-cytidine) | 3 | 38.4 | active |
| HAT1 (histone acetyltransferase 1) | 1 | 63.7 | active |
| HAT1 (histone acetyltransferase 1) | 2 | 56.8 | active |
| HAT1 (histone acetyltransferase 1) | 3 | 71.9 | active |
| PDE1B (phosphodiesterase 1B) | 1 | 54.7 | active |
| PDE1B (phosphodiesterase 1B) | 2 | 52.8 | active |
| PDE1B (phosphodiesterase 1B) | 3 | 48.6 | active |
| AKT1 (AKT serine/threonine kinase 1) | 1 | 69.1 | active |
| AKT1 (AKT serine/threonine kinase 1) | 2 | 66.1 | active |
| AKT1 (AKT serine/threonine kinase 1) | 3 | 67 | active |
| SMC1A (structural maintenance of chromosomes 1A) | 1 | 31.6 | active |
| SMC1A (structural maintenance of chromosomes 1A) | 1 | 61.9 | active |
| SMC1A (structural maintenance of chromosomes 1A) | 2 | 28.5 | active |
| SMC1A (structural maintenance of chromosomes 1A) | 2 | 64.4 | active |
| SMC1A (structural maintenance of chromosomes 1A) | 3 | 36.1 | active |
| SMC1A (structural maintenance of chromosomes 1A) | 3 | 62.1 | active |
